Data published in paper PMC5566888.
These are yes or no findings as the source states them, for the method shown. In cells and extracts the contact can be indirect. Here binding means that the protein was enriched with, or labelled near, the bait; the list need not be complete. Tags and fused reporters may be left off the sequences shown.

T1: Psb29-FLAG (Synechocystis sp. PCC 6803 Psb29 with a C-terminal 3xFLAG tag) (Synechocystis sp. PCC 6803) (UniProt P73956)
T1 sequence: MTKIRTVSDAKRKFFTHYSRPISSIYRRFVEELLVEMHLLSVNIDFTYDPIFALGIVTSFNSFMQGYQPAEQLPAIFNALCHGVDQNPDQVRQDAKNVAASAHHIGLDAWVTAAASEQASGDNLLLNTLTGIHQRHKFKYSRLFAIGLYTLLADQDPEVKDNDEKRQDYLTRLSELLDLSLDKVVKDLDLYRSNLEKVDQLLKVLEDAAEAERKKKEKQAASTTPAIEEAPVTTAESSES

T2: FtsH2-FLAG (Synechocystis sp. PCC 6803 FtsH2 with a C-terminal 3xFLAG tag) (Synechocystis sp. PCC 6803) (UniProt Q55700)
T2 sequence: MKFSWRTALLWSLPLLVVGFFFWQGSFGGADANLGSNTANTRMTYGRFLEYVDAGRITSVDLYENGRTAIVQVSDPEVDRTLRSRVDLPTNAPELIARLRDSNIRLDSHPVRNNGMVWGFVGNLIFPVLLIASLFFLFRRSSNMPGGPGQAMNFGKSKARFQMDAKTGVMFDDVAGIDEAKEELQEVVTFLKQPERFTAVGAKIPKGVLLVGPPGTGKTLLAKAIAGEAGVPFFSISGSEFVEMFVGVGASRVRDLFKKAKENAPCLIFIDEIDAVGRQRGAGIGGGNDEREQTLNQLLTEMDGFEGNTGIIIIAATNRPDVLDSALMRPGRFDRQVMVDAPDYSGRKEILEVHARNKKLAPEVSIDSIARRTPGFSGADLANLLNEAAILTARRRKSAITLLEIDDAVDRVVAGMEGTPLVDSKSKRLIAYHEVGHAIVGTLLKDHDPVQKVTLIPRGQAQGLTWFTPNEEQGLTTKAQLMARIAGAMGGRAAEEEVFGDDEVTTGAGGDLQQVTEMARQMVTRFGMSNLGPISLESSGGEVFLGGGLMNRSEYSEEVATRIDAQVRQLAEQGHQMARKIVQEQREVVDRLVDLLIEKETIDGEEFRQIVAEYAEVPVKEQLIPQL

B1: FtsH1 (Synechocystis sp. PCC 6803) (enzyme, UniProt P73179 1-665)
chain: MSHRPRSDRHSFSSPSRFWHRLGMGLLVAGTLALPVSTLAQEGGEGAQPKASPSPIQSPNSSNGEATPRSFFNSGSPRSAEPKMNYGQLIDAIKANQVAKVEVDTNRRQAIVTLKDAPPGSKPQTVQLLDNNPELLNLLRSRSETIDLDINRTPDNSALYGLLTNLLVVAILIGLVVMVVRRSANASGQAMSFGKSKARFQMEAKTGVGFDDVAGIDEAKEELQEVVTFLKQPEKFTAIGAKIPRGVLLIGPPGTGKTLLAKAIAGEAGVPFFSISGSEFVEMFVGVGASRVRDLFKKAKENAPCLVFIDEIDAVGRQRGVGYGGGNDEREQTLNQLLTEMDGFEGNSGIIVIAATNRPDVLDLALLRPGRFDRQVTVDYPDVQGRELILAIHAQNKKLHEEVQLAAIARRTPGFTGADLANVLNEAAIFTARRRKEAITMAEVNDAIDRVVAGMEGTPLVDSKSKRLIAYHEVGHALIGTLCPGHDPVEKVTLIPRGQAQGLTWFTPDEDQSLMTRNQMIARIAGLLGGRVAEEVIFGDDEVTTGAGNDIEKITYLARQMVTKLGMSSLGLVALEEEGDRNFSGGDWGKRSEYSEDIAARIDREIQAIVTAAHQRATRIIEENRNLMDLLVDALIDQETIEGEHFRQLVESYQQSQKQPALAGK
B2: FtsH3 (Synechocystis sp. PCC 6803) (enzyme, UniProt P72991 1-616)
chain: MSKNNKKWRNAGLYALLLIVVLALASAFFDRPTQTRETLSYSDFVNRVEANQIERVNLSADRTQAQVPNPSGGPPYLVNLPNDPDLINILTQHNVDIAVQPQSDEGFWFRIASTLFLPILLLVGIFFLFRRAQSGPGSQAMNFGKSKARVQMEPQTQVTFGDVAGIEQAKLELTEVVDFLKNADRFTELGAKIPKGVLLVGPPGTGKTLLAKAVAGEAGVPFFSISGSEFVEMFVGVGASRVRDLFEQAKANAPCIVFIDEIDAVGRQRGAGLGGGNDEREQTLNQLLTEMDGFEGNTGIIIVAATNRPDVLDSALMRPGRFDRQVVVDRPDYAGRREILNVHARGKTLSQDVDLDKIARRTPGFTGADLSNLLNEAAILAARRNLTEISMDEVNDAIDRVLAGPEKKNRVMSEKRKTLVAYHEAGHALVGALMPDYDPVQKISIIPRGRAGGLTWFTPSEDRMESGLYSRSYLQNQMAVALGGRIAEEIIFGEEEVTTGASNDLQQVARVARQMVTRFGMSDRLGPVALGRQGGGVFLGRDIASDRDFSDETAAAIDEEVSQLVDQAYQRAKQVLVENRGILDQLAEILVEKETVDSEELQTLLANNNAKLALLV
B3: FtsH2 (Synechocystis sp. PCC 6803) (enzyme, UniProt Q55700 1-627)
chain: MKFSWRTALLWSLPLLVVGFFFWQGSFGGADANLGSNTANTRMTYGRFLEYVDAGRITSVDLYENGRTAIVQVSDPEVDRTLRSRVDLPTNAPELIARLRDSNIRLDSHPVRNNGMVWGFVGNLIFPVLLIASLFFLFRRSSNMPGGPGQAMNFGKSKARFQMDAKTGVMFDDVAGIDEAKEELQEVVTFLKQPERFTAVGAKIPKGVLLVGPPGTGKTLLAKAIAGEAGVPFFSISGSEFVEMFVGVGASRVRDLFKKAKENAPCLIFIDEIDAVGRQRGAGIGGGNDEREQTLNQLLTEMDGFEGNTGIIIIAATNRPDVLDSALMRPGRFDRQVMVDAPDYSGRKEILEVHARNKKLAPEVSIDSIARRTPGFSGADLANLLNEAAILTARRRKSAITLLEIDDAVDRVVAGMEGTPLVDSKSKRLIAYHEVGHAIVGTLLKDHDPVQKVTLIPRGQAQGLTWFTPNEEQGLTTKAQLMARIAGAMGGRAAEEEVFGDDEVTTGAGGDLQQVTEMARQMVTRFGMSNLGPISLESSGGEVFLGGGLMNRSEYSEEVATRIDAQVRQLAEQGHQMARKIVQEQREVVDRLVDLLIEKETIDGEEFRQIVAEYAEVPVKEQLIPQL
B4: Phb3 (protein, UniProt P72655 1-321)
chain: MEAFFLFFLVFFGSAIGTSVKIVNEKNEYLVERLGSYNKKLTPGLNFTVPILDRVVFKQTTREKVIDIPPQSCITKDNVAITADAVVYWRIIDMEKAYYKVENLQSAMVNLVLTQIRSEIGKLELDQTFTARTEINELLLRELDISTDPWGVKVTRVELRDIMPSKAVLDSMELQMTAERKKRAAILTSEGQRDSAINSAQGDAQARVLEAEAKKKAAILNAEAEQQKKVLEAKATAEALSILTEKLSSDNHAREALQFLLAQQYLNMGTTIGSSDSSKVMFLDPRNILSTLEGVRSIVGDGALDEGLEAALNKVDRHRAV
B5: Psb29 (Synechocystis sp. PCC 6803), endogenous (protein, UniProt P73956 1-240)
chain: MTKIRTVSDAKRKFFTHYSRPISSIYRRFVEELLVEMHLLSVNIDFTYDPIFALGIVTSFNSFMQGYQPAEQLPAIFNALCHGVDQNPDQVRQDAKNVAASAHHIGLDAWVTAAASEQASGDNLLLNTLTGIHQRHKFKYSRLFAIGLYTLLADQDPEVKDNDEKRQDYLTRLSELLDLSLDKVVKDLDLYRSNLEKVDQLLKVLEDAAEAERKKKEKQAASTTPAIEEAPVTTAESSES

The molecules below were run against T1, Psb29-FLAG (Synechocystis sp. PCC 6803 Psb29 with a C-terminal 3xFLAG tag) (Synechocystis sp. PCC 6803) (assay: affinity purification with mass spectrometry; anti-FLAG immunoaffinity purification of Psb29-FLAG from detergent-solubilised membranes; 2D clear-native/SDS-PAGE; proteins detected by Coomassie staining, immunoblotting and mass spectrometry).

binding, binds:
prohibitin (Phb1)
B1
B2
B3
B4

These molecules were tested against T2, FtsH2-FLAG (Synechocystis sp. PCC 6803 FtsH2 with a C-terminal 3xFLAG tag) (Synechocystis sp. PCC 6803) (assay: affinity purification with mass spectrometry; anti-FLAG immunoaffinity purification of FtsH2-FLAG from detergent-solubilised membranes; 2D gel stained with SYPRO Orange; proteins detected by mass spectrometry).

binding, binds:
B5
B2
